The data set in a line: Plasma pharmacokinetics of naproxen after oral administration in rats. The format is in vivo, rat.

What is called Cmax is the peak of the concentration-time curve. Turning to `COc1ccc2cc([C@H](C)C(=O)O)ccc2c1` [Naproxen], where the note is “male, Sprague-Dawley, rat, plasma, po, 2 mg/kg”, the Cmax was determined as 7770 ± 4130 ng/mL. Moreover, the AUCall (naproxen in plasma, oral, 2 mg/kg (amount of naproxen in dose), rats) was found to be 50 ± 6 μg * ht/mL.
